Reference: US12729225B2, “Non-canonical SWI/SNF complex and uses thereof” (Dana-Farber Cancer Institute, Inc., priority 2018, dated 2026)

B1: CCDC47 (protein, UniProt Q96A33 21-483, looked up)
PAT complex subunit CCDC47: KFDDFEDEEDIVEYDDNDFAEFEDVMEDSVTESPQRVIITEDDEDETTVELEGQDENQEGDFEDADTQEGDTESEPYDDEEFEGYEDKPDTSSSKNKDPITIVDVPAHLQNSWESYYLEILMVTGLLAYIMNYIIGKNKNSRLAQAWFNTHRELLESNFTLVGDDGTNKEATSTGKLNQENEHIYNLWCSGRVCCEGMLIQLRFLKRQDLLNVLARMMRPVSDQVQIKVTMNDEDMDTYVFAVGTRKALVRLQKEMQDLSEFCSDKPKSGAKYGLPDSLAILSEMGEVTDGMMDTKMVHFLTHYADKIESVHFSDQFSGPKIMQEEGQPLKLPDTKRTLLFTFNVPGSGNTYPKDMEALLPLMNMVIYSIDKAKKFRLNREGKQKADKNRARVEENFLKLTHVQRQEAAQSRREEKKRAEKERIMNEEDPEKQRRLEEAALRREQKKLEKKQMKMKQIKVKAM
B2: PRPF40A (protein, UniProt O75400 1-957, looked up)
Pre-mRNA-processing factor 40 …: MRPGTGAERGGLMVSEMESHPPSQGPGDGERRLSGSSLCSGSWVSADGFLRRRPSMGHPGMHYAPMGMHPMGQRANMPPVPHGMMPQMMPPMGGPPMGQMPGMMSSVMPGMMMSHMSQASMQPALPPGVNSMDVAAGTASGAKSMWTEHKSPDGRTYYYNTETKQSTWEKPDDLKTPAEQLLSKCPWKEYKSDSGKPYYYNSQTKESRWAKPKELEDLEGYQNTIVAGSLITKSNLHAMIKAEESSKQEECTTTSTAPVPTTEIPTTMSTMAAAEAAAAVVAAAAAAAAAAAAANANASTSASNTVSGTVPVVPEPEVTSIVATVVDNENTVTISTEEQAQLTSTPAIQDQSVEVSSNTGEETSKQETVADFTPKKEEEESQPAKKTYTWNTKEEAKQAFKELLKEKRVPSNASWEQAMKMIINDPRYSALAKLSEKKQAFNAYKVQTEKEEKEEARSKYKEAKESFQRFLENHEKMTSTTRYKKAEQMFGEMEVWNAISERDRLEIYEDVLFFLSKKEKEQAKQLRKRNWEALKNILDNMANVTYSTTWSEAQQYLMDNPTFAEDEELQNMDKEDALICFEEHIRALEKEEEEEKQKSLLRERRRQRKNRESFQIFLDELHEHGQLHSMSSWMELYPTISSDIRFTNMLGQPGSTALDLFKFYVEDLKARYHDEKKIIKDILKDKGFVVEVNTTFEDFVAIISSTKRSTTLDAGNIKLAFNSLLEKAEAREREREKEEARKMKRKESAFKSMLKQAAPPIELDAVWEDIRERFVKEPAFEDITLESERKRIFKDFMHVLEHECQHHHSKNKKHSKKSKKHHRKRSRSRSGSDSDDDDSHSKKKRQRSESRSASEHSSSAESERSYKKSKKHKKKSKKRRHKSDSPESDAEREKDKKEKDRESEKDRTRQRSESKHKSPKKKTGKDSGNWDTSGSELSEGELEKRRRTLLEQLDDDQ
B3: PDIA3 (protein, UniProt P30101 25-505, looked up)
Protein disulfide-isomerase A3: SDVLELTDDNFESRISDTGSAGLMLVEFFAPWCGHCKRLAPEYEAAATRLKGIVPLAKVDCTANTNTCNKYGVSGYPTLKIFRDGEEAGAYDGPRTADGIVSHLKKQAGPASVPLRTEEEFKKFISDKDASIVGFFDDSFSEAHSEFLKAASNLRDNYRFAHTNVESLVNEYDDNGEGIILFRPSHLTNKFEDKTVAYTEQKMTSGKIKKFIQENIFGICPHMTEDNKDLIQGKDLLIAYYDVDYEKNAKGSNYWRNRVMMVAKKFLDAGHKLNFAVASRKTFSHELSDFGLESTAGEIPVVAIRTAKGEKFVMQEEFSRDGKALERFLQDYFDGNLKRYLKSEPIPESNDGPVKVVVAENFDEIVNNENKDVLIEFYAPWCGHCKNLEPKYKELGEKLSKDPNIVIAKMDATANDVPSPYEVRGFPTIYFSPANKKLNPKKYEGGRELSDFISYLQREATNPPVIQEEKPKKKKKAQEDL

System: mSWI/SNF complexes
Experiment: mSWI/SNF complex purification with HA-tagged baits and mass spectrometry (peptide counts)
Parameters: species or system human
[1] = 293_HA-BRD7: HA-BRD7 bait purification, total peptide count per co-purified protein
[2] = 293_HA-BRD7: HA-BRD7 bait purification, unique peptide count per co-purified protein

| Molecule | Total [1] | Unique [2] | Total (293_HA-BRD7 bait purification, mass spectrometry, total peptides per co-purified protein) | Unique (293_HA-BRD7 bait purification, mass spectrometry, unique peptides per co-purified protein) |
| --- | --- | --- | --- | --- |
| B1 | 8 | 8 | – | – |
| B2 | 8 | 8 | – | – |
| B3 | 8 | 8 | 1 | 1 |
